Experimental findings from paper PMC10163288 are described below.

The list shows a part of the results.

To fix the notation:
B1: il10ra_site1_sap_25_mot_HHH_b1_05357_000000034_0001_23_39_H_._HHH_b2_00731_0001_0000300016_0000001_0_0001_af2pred_0001 (protein)
chain: SSSSDEEVKRALRFAKWLAEQGDREAVEFFLKWAKQLAERLGDEELEELIKEVEEEVQKLLSSSS
B2: il10ra_site1_sap_15_mot_HHH_b2_01205_000000166_0001_1_19_H_._71be647701ff1b2f9c0375d933d1ad3f_0001_0001_0000600024_0000001_0_0001 (protein)
chain: SSSSDETQELYELMEKLAKATHEGDKELVEELYEEARELAEELNNRLARIQIEFAFKRAHSSSSS
B3: il10ra_site1_normal_mot_HHH_b2_00943_af2_000000149_0001_1_17_H_._HHH_b2_00163_af2_0001_0000400008_0000001_1 (protein)
chain: SSSSDEEEEELRRLAEEAIRVAEELGDPNLAFLVRQALKALEIAGDEHAREILENLLKQILSSSS
B4: il10ra_site1_sap_23_mot_HHH_b2_02267_000000141_0001_1_20_H_._ems_3hC_501_0001_0001_0000100001_0000001_0_0001_af2pred_0001 (protein)
chain: SSSSDEEKEALQLAAEASALAIRRGDEETLERLLRLQVRLYREGDPELAKELEKLAEEVLSSSSS
B5: il10ra_site1_sap_24_mot_HHH_b2_03183_af2_000000055_0001_40_56_H_._HHH_b2_05012_0001_0000200012_0000001_0_0001 (protein)
chain: SSSSSSSFREAYELVEEAFEIEDPEEVQELLERALELAEENNNWVLFFSIRHALEAERSSSSSSS
B6: il10ra_site1_normal_mot_HHH_b1_02492_000000051_0001_1_21_H_._HHH_b1_08445_0001_0000100002_0000002_0 (protein)
chain: SSSSSDEVYELLRKAIELLRDGNPEEAEKVLEEAEELARELNNEVLEVQIEFLKRLIERNSSSSS
B7: il10ra_site1_normal_mot_HHH_b1_00814_af2_000000078_0001_43_57_H_._HHH_b1_00467_0001_0000400018_0000001_0_af2pred_0001 (protein)
chain: SSSSSDEEVEERIEELSEEAKHVDAETAFELLKEMAELAKEVNDPELEQFVKEVAAELISSSSSS
B8: il10ra_site1_normal_mot_HHH_b1_05056_000000217_0001_1_20_H_._HHH_b1_06255_af2_0001_0000400025_0000001_0_af2pred_0001 (protein)
chain: SSSSSEEEQRVKELLEEIRELLEEGDYREALRLLIEAAKIAAEIDNKELLQIIFELLRRVGSSSS
B9: il10ra_site1_sap_18_mot_HHH_b2_08144_af2_000000046_0001_38_52_H_._HHH_b2_07064_af2_0001_0000200009_0000002_0_0001 (protein)
chain: SSSSSSDINELAQEAIHLAIQRGDEEVLREIWRLVHEYGKEGDPRYREELEELLEELRSSSSSSS
B10: il10ra_site1_sap_18_mot_HHH_b1_02464_000000069_0001_1_19_H_._HHH_b1_02930_0001_0000700049_0000001_0_0001 (protein)
chain: SSSSSQEEQHARAVLWFAEAALRDGDPHAARKMLEYAEELAEELGDEELLEKIQRLLKEVNSSSS
B11: il10ra_site1_sap_17_mot_HHH_b2_02053_af2_000000006_0001_3_19_H_._HHH_b2_05903_0001_0000100004_0000001_0_0001 (protein)
chain: SSSSDEKERLEELEERVEELIEEGDREEVLRVLFELVRVAFRLNDPEALRRAWELLKRVASSSSS
B12: il10ra_site1_sap_18_mot_HHH_b2_03220_af2_000000223_0001_23_40_H_._HHH_b1_01656_0001_0000800049_0000001_0_0001 (protein)
chain: SSSSSSDAAHLQQEALRAAFQNSDEETLRQLDELYRRIVEEGDPRLEEELEELLEELRSSSSSSS
B13: il10ra_site1_sap_17_mot_HHH_b2_00134_af2_000000008_0001_38_52_H_._HHH_b2_08161_0001_0000600031_0000002_0_0001_af2pred_0001 (protein)
chain: SSDEEIREHAEEVSEEAKELVKKNPEEARKAVAELFMEAAENNDEELLRAAAEVYQEVFKYIKSS
B14: il10ra_site1_normal_mot_2c1a291787c6f40772924d4e9068d803_0001_af2_000000187_0001_34_48_H_._ems_3hM_441_0001_0000400013_0000001_0_af2pred_0001 (protein)
chain: DEELRERIAKLFWLLSKLLKDDPELAKRVFQIAARAIRAVNNGDEKLAEELVEELEELVRKLSSS
B15: il10ra_site1_sap_24_mot_HHH_b1_01879_000000050_0001_1_18_H_._HHH_b1_04021_0001_0000100001_0000001_0_0001 (protein)
chain: SSSSSSDREEEVEELLEEAKEVPDPRERTRILLEALRIAIQASDPELLRLVWRVVKELSSSSSSS
B16: il10ra_site1_sap_19_mot_HHH_b1_00531_af2_000000024_0001_1_19_H_._HHH_b1_05833_af2_0001_0000100001_0000001_0_0001 (protein)
chain: SSSSDEELEEFEEEIEELLKEGDYERALRLIAEALRHAFQANDPEVLRRLWELAKEAARSSSSSS
B17: il10ra_site1_sap_19_mot_HHH_b2_04275_000000272_0001_20_36_H_._HHH_b1_02692_0001_0000400042_0000003_0_0001 (protein)
chain: SSSSSDIEEEVRQLLEELEEHGDPELRQRLIQAVWRLVKLAAENNDDEKLRLALEALKLASSSSS
B18: il10ra_site1_sap_25_mot_HEEHE_1893_000000002_0001_40_56_H_._43642e40158d6d50ca32f4d9c2045359_0001_0001_0000200014_0000001_0_0001 (protein)
chain: SSSSSREELHELLRLIARVFVRGDEEELEELLEEAIKIAEELNNEKAVEALRMFLENLRRLSSSS
B19: il10ra_site1_normal_mot_HHH_b1_05937_af2_000000262_0001_20_37_H_._HHH_b2_04780_af2_0001_0000200010_0000002_0 (protein)
chain: SSSSDEEEEELKRLEERIEEAIEKNDDELALRLIIELIRLAFRARDPEALRAAWELAKRIHSSSS

The target in the test is il10ra, Q13651. The test can be described thus: yeast display titration.
Regarding B1, the “apparent Kd” value was “inactive: no binding seen”.

Consider B2, for which the “apparent Kd” value is “inactive: no binding seen”.

For the molecule B3, the “apparent Kd” value is “inactive: no binding seen”.

With B4, the “apparent Kd” value is “inactive: no binding seen”.

Consider B5, for which the “apparent Kd” value was “inactive: no binding seen”.

Regarding B6, the “apparent Kd” value was “inactive: no binding seen”.

In the case of B7, the “apparent Kd” value was “inactive: no binding seen”.

Turning to B8, the “apparent Kd” value was “inactive: no binding seen”.

Take B9: the “apparent Kd” value is “inactive: no binding seen”.

Take B10: the “apparent Kd” value was “inactive: no binding seen”.

On to B11, for which the “apparent Kd” value is “inactive: no binding seen”.

Turning to B12, the “apparent Kd” value is “inactive: no binding seen”.

In the case of B13, the “apparent Kd” value was “inactive: no binding seen”.

As to B14, the “apparent Kd” value was “inactive: no binding seen”.

As for B15, the “apparent Kd” value was “inactive: no binding seen”.

Consider B16, for which the “apparent Kd” value was “inactive: no binding seen”.

On to B17, for which the “apparent Kd” value was “inactive: no binding seen”.

Take B18: the “apparent Kd” value is “inactive: no binding seen”.

Take B19: the “apparent Kd” value was “inactive: no binding seen”.
